In article PMC9943853:
These are yes or no findings as the source states them, for the method shown. In cells and extracts the contact can be indirect. Some entries that bind do so weakly or less than the wild type.

Sequences of proteins named here, by UniProt entry; tags and fusion partners are left off.
UniProt P04150: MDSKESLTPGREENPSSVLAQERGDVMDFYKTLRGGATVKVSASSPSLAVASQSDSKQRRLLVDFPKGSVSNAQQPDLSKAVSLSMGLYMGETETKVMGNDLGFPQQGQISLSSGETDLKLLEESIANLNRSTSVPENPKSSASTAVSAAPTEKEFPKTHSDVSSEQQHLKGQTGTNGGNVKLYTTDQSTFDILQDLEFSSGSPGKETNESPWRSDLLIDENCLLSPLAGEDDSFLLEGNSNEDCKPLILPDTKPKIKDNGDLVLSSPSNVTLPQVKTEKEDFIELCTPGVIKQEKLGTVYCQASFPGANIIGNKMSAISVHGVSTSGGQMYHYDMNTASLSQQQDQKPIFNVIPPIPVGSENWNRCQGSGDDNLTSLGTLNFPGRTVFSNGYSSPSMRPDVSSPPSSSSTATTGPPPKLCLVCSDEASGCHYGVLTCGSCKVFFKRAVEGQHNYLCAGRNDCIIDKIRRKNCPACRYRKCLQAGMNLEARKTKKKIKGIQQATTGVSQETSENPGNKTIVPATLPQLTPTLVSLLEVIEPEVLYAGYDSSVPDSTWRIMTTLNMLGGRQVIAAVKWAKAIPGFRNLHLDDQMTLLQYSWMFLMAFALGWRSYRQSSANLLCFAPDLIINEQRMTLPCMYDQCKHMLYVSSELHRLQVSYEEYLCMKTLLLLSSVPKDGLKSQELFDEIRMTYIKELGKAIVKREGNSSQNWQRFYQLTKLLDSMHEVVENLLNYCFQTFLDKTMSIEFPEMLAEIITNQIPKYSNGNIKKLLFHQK

B1: FKBP prolyl isomerase 4 (protein, UniProt Q02790 1-459)
chain: MTAEEMKATESGAQSAPLPMEGVDISPKQDEGVLKVIKREGTGTEMPMIGDRVFVHYTGWLLDGTKFDSSLDRKDKFSFDLGKGEVIKAWDIAIATMKVGEVCHITCKPEYAYGSAGSPPKIPPNATLVFEVELFEFKGEDLTEEEDGGIIRRIQTRGEGYAKPNEGAIVEVALEGYYKDKLFDQRELRFEIGEGENLDLPYGLERAIQRMEKGEHSIVYLKPSYAFGSVGKEKFQIPPNAELKYELHLKSFEKAKESWEMNSEEKLEQSTIVKERGTVYFKEGKYKQALLQYKKIVSWLEYESSFSNEEAQKAQALRLASHLNLAMCHLKLQAFSAAIESCNKALELDSNNEKGLFRRGEAHLAVNDFELARADFQKVLQLYPNNKAAKTQLAVCQQRIRRQLAREKKLYANMFERLAEEENKAKAEASSGDHPTDTEMKEEQKSNTAGSQSQVETEA
B2: FKBP5 (protein, UniProt Q13451 1-457)
chain: MTTDEGAKNNEESPTATVAEQGEDITSKKDRGVLKIVKRVGNGEETPMIGDKVYVHYKGKLSNGKKFDSSHDRNEPFVFSLGKGQVIKAWDIGVATMKKGEICHLLCKPEYAYGSAGSLPKIPSNATLFFEIELLDFKGEDLFEDGGIIRRTKRKGEGYSNPNEGATVEIHLEGRCGGRMFDCRDVAFTVGEGEDHDIPIGIDKALEKMQREEQCILYLGPRYGFGEAGKPKFGIEPNAELIYEVTLKSFEKAKESWEMDTKEKLEQAAIVKEKGTVYFKGGKYMQAVIQYGKIVSWLEMEYGLSEKESKASESFLLAAFLNLAMCYLKLREYTKAVECCDKALGLDSANEKGLYRRGEAQLLMNEFESAKGDFEKVLEVNPQNKAARLQISMCQKKAKEHNERDRRIYANMFKKFAEQDAKEEANKAMGKKTSEGVTNEKGTDSQAMEEEKPEGHV

Columns and labels:
[1] = target: glucocorticoid receptor (human (endogenous in SH-SY5Y)) (UniProt P04150); test: proximity ligation; Duolink in situ kit on SH-SY5Y cells fixed with 4% paraformaldehyde, rabbit anti-GR and mouse anti-FKBP4 antibodies; cells treated with melatonin (1 μM) for 30 min and then with cortisol (1 μM) for 24 h
[2] = target: glucocorticoid receptor (human (endogenous in SH-SY5Y)) (UniProt P04150); test: co-IP; primary antibodies immobilised on protein G magnetic beads, incubated with SH-SY5Y cell lysates (IP lysis buffer) overnight at 4 °C, washed with PBST, eluted with 20 mM glycine pH 2.0, western blot; cells treated with melatonin (1 μM) for 30 min and then with cortisol (1 μM) for 24 h

Binder | binding [1] | binding [2]
B1 | binds | binds
B2 | – | binds
